Source: paper PMC11317169

Columns and labels:
Assay in all cases: filter binding
[1] = biological target: alpha-synuclein F-type fibril (Homo sapiens) (UniProt P37840); conditions: 37 C, 1 uM (screen) or 250 nM (Kd) monomer equivalents, purified recombinant protein, label: 32P
[2] = biological target: alpha-synuclein R-type fibril (Homo sapiens) (UniProt P37840); conditions: 37 C, 1 uM (screen) or 250 nM (Kd) monomer equivalents, purified recombinant protein, label: 32P
[3] = biological target: alpha-synuclein monomer (Homo sapiens) (UniProt P37840); conditions: 2'-F pyrimidines; helper DNA with two LNA G paired to the 3' end; 37 C; 1 uM (screen) or 250 nM (Kd) monomer equivalents; purified recombinant protein; label: 32P
[4] = 2'-F pyrimidines, helper DNA with two LNA G paired to the 3' end

Sequence | binding result ([1]; single-stranded DNA) | binding result ([2]; single-stranded DNA) | binding result [3] | binding result [2, 4] | Kd [1, 4] [nM] | binding result [1, 4]
ATAGTCCCATCATTCATTGTATGGTACGGCGCGGTGGCGGGTGCGTGGAGATATTAGCAAGTGTCA [M5-15 DNA] | no binding | no binding | – | – | – | –
ATACTGCCATTCATTTCATTTGCCTGTGGTGTTGGGGCGGGTGCGTTTAGATATCAGCATGTGTCA [T-SO508 DNA] | binds | binds | – | – | – | –
GGGAGAGUAUCCGUUGAGGCUGAACGCGUUUACUCCGCUAGUACGAACCCGAUUGCCCAGAUCGGAAGAGCGUCGUGUAGGGCAUUGCCCCAGCGUGACUGCCUA / TAGGCAGTCACGCTGGGGCAATGC [F004 RNA] | – | – | no binding | no binding | – | –
GGGAGAGUAUCCGUUGAGGCUGAUCGAUCCACGUCCGACAACGCGUUUACUCGCCAUCAGAUCGGAAGAGCGUCGUGUAGGGCAUUGCCCCAGCGUGACUGCCUA / TAGGCAGTCACGCTGGGGCAATGC [F030 RNA] | – | – | no binding | no binding | 6.6 | –
GGGAGAGUAUCCGUUGAGGCUGAUUCCGACCGCCGCAACUUAUAGGUAUCCCGCUGCAAGAUCGGAAGAGCGUCGUGUAGGGCAUUGCCCCAGCGUGACUGCCUA / TAGGCAGTCACGCTGGGGCAATGC [F002 RNA] | – | – | no binding | no binding | – | no binding
ATCGAGTGTGTACGGGGTCCGGTAGGGTGGCGAGGTCTTCCTGTCGTAGCAGGATCCA [F5R1 DNA] | binds | binds | – | – | – | –
GGGAGAGUAUCCGUUGAGGCUGAUCAGUCCAGUACGAGACGCGUUUACCUCCACUGCAAGAUCGGAAGAGCGUCGUGUAGGGCAUUGCCCCAGCGUGACUGCCUA / TAGGCAGTCACGCTGGGGCAATGC [F000 RNA] | – | – | no binding | no binding | – | –
ATCGAGTGGACGAGTGCCTCCGGTACGAGCTGTCTGATGGGTTTGCGCGCAGGATCCA [F5R2 DNA] | no binding | no binding | – | – | – | –
GGGAGAGUAUCCGUUGAGGCUGAAUCGGCCACAGUCGACAACUUUGAAAUCCACCUGCAGAUCGGAAGAGCGUCGUGUAGGGCAUUGCCCCAGCGUGACUGCCUA / TAGGCAGTCACGCTGGGGCAATGC [F015 RNA] | – | – | no binding | no binding | – | –
GGGAGAGUAUCCGUUGAGGCUGAAUCCGACCAACCCAACGCGUUUACCUCACCUGCAAGAUCGGAAGAGCGUCGUGUAGGGCAUUGCCCCAGCGUGACUGCCUA / TAGGCAGTCACGCTGGGGCAATGC [F001 RNA] | – | – | no binding | no binding | – | no binding
GGGAGAGUAUCCGUUGAGGCUGACAACUUGAAAUCCCAACCCUGCAGCCGUGUCUGGUAGAUCGGAAGAGCGUCGUGUAGGGCAUUGCCCCAGCGUGACUGCCUA / TAGGCAGTCACGCTGGGGCAATGC [F073 RNA] | – | – | no binding | no binding | – | –
GGGAGAGUAUCCGUUGAGGCUGAAGCCAUGCUGUCAACUUUUAACUCGUCACCGCUCGAGAUCGGAAGAGCGUCGUGUAGGGCAUUGCCCCAGCGUGACUGCCUA / TAGGCAGTCACGCTGGGGCAATGC [F005 RNA] | – | – | no binding | no binding | – | –
GGGAGAGUAUCCGUUGAGGCUGAGUUUCCGACCACGACCCAACGUUACUGCCCACCACAGAUCGGAAGAGCGUCGUGUAGGGCAUUGCCCCAGCGUGACUGCCUA / TAGGCAGTCACGCTGGGGCAATGC [F164 RNA] | – | – | no binding | no binding | – | –
GGGAGAGUAUCCGUUGAGGCUGAGUUUCCGAACGGCCCAACUUUGAAAUCCCCGCCCGAGAUCGGAAGAGCGUCGUGUAGGGCAUUGCCCCAGCGUGACUGCCUA / TAGGCAGTCACGCTGGGGCAATGC [F062 RNA] | – | – | no binding | no binding | – | –
GGGAGAGUAUCCGUUGAGGCUGAUCCGACCAUGCUUCAACUUAUACCUCGGGGACUGUAGAUCGGAAGAGCGUCGUGUAGGGCAUUGCCCCAGCGUGACUGCCUA / TAGGCAGTCACGCTGGGGCAATGC [F124 RNA] | – | – | no binding | no binding | 8.8 | –
GGGAGAGUAUCCGUUGAGGCUGACAACGCGUUUACCUCACACCACGUCAUCCGUUGCCAGAUCGGAAGAGCGUCGUGUAGGGCAUUGCCCCAGCGUGACUGCCUA / TAGGCAGTCACGCTGGGGCAATGC [F003 RNA] | – | – | no binding | no binding | – | binds
GGGAGAGUAUCCGUUGAGGCUGAGCAGCACAUGACCUCACCUUUUACUCUGCGCUGCAAGAUCGGAAGAGCGUCGUGUAGGGCAUUGCCCCAGCGUGACUGCCUA / TAGGCAGTCACGCTGGGGCAATGC [F020 RNA] | – | – | no binding | no binding | – | –

A negative result means that nothing was seen under these conditions.
